Laboratory results as given in the supplement of paper PMC10849652.
The list shows a part of the results.

Chains of the proteins cited; added tags and fusions are not shown. Lines headed by an entry give the natural chain unless they say otherwise; changes in a name come on top.
UniProt P05091: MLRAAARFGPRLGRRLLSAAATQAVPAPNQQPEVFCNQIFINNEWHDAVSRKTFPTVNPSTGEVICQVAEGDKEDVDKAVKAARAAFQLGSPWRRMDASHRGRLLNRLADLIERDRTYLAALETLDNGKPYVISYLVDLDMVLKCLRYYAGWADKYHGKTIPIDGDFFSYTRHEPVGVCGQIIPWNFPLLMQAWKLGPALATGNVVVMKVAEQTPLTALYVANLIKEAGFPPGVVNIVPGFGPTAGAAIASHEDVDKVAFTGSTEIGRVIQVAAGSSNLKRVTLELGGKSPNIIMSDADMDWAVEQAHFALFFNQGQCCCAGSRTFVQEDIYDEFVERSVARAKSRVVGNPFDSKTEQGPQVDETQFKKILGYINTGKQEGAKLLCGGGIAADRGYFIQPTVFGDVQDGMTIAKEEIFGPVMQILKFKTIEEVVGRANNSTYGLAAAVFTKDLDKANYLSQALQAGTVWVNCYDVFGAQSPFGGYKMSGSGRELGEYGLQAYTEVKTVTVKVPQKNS
UniProt P00568: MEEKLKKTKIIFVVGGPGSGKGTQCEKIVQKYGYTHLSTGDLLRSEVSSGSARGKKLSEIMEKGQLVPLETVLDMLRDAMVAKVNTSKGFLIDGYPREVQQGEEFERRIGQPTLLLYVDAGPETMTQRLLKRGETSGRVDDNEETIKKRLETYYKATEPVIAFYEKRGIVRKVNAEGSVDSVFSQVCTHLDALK
UniProt Q8WV93: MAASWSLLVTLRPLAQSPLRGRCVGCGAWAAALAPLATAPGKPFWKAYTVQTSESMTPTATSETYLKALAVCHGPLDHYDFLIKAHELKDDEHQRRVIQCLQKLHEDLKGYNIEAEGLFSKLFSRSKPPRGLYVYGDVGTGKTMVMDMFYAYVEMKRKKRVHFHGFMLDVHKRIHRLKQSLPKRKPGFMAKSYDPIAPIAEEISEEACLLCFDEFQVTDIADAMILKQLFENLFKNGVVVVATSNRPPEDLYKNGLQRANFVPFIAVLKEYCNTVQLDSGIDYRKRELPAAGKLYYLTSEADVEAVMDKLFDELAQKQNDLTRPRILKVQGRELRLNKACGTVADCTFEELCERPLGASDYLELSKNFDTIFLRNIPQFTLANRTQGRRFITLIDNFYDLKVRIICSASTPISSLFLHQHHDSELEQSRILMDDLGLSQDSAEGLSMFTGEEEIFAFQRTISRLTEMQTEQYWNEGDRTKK
UniProt Q9UEY8: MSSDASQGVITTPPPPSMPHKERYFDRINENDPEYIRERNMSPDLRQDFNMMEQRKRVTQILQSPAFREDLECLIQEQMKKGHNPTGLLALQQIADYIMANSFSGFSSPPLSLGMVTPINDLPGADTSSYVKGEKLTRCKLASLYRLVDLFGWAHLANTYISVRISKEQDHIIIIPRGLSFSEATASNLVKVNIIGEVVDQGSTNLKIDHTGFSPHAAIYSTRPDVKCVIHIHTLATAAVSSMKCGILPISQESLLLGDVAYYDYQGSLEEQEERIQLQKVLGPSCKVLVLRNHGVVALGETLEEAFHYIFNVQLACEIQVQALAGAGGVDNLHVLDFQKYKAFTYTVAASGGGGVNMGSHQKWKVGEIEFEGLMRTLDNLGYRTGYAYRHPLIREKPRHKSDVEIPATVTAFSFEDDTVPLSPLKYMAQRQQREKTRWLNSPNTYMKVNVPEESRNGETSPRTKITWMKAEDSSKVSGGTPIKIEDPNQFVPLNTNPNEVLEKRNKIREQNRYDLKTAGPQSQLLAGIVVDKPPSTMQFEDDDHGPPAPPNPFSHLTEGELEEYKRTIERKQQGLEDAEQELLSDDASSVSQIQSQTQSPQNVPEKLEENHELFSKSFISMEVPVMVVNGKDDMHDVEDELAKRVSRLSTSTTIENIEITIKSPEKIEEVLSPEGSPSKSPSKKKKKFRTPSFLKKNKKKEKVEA
UniProt Q9H6U8: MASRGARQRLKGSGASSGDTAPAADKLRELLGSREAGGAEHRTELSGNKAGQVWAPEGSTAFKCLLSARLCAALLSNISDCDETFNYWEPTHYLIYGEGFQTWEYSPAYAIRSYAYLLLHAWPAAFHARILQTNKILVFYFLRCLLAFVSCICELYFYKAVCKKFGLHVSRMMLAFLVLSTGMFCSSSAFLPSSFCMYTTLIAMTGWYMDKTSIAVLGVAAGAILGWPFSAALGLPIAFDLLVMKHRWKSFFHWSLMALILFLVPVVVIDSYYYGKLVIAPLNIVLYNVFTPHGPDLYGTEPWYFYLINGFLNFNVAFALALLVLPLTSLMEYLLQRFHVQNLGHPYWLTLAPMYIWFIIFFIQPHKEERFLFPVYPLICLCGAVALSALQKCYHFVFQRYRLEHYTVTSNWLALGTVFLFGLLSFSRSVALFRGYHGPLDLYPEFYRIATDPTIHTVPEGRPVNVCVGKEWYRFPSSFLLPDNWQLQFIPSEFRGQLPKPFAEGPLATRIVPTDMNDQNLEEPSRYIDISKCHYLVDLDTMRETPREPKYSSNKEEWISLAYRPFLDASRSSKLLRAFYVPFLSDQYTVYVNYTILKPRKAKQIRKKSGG
UniProt Q9Y673: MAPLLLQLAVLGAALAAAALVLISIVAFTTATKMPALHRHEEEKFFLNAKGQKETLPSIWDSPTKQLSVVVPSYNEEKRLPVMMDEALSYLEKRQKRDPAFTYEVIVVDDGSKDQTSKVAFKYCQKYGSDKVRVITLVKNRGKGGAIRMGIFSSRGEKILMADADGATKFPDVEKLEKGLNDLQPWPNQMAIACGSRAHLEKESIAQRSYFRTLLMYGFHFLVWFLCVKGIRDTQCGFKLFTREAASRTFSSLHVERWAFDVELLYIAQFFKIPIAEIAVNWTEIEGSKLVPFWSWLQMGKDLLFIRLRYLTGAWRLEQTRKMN
UniProt O43488: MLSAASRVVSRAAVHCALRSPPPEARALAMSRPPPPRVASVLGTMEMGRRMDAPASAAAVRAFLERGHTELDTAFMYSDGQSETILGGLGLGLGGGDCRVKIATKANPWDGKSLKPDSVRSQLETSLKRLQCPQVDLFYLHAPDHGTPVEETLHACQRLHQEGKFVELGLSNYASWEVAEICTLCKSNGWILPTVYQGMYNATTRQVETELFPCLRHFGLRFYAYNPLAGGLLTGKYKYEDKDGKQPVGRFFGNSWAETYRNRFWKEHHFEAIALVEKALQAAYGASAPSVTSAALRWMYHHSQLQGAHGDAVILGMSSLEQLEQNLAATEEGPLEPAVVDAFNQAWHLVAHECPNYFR
UniProt Q12904: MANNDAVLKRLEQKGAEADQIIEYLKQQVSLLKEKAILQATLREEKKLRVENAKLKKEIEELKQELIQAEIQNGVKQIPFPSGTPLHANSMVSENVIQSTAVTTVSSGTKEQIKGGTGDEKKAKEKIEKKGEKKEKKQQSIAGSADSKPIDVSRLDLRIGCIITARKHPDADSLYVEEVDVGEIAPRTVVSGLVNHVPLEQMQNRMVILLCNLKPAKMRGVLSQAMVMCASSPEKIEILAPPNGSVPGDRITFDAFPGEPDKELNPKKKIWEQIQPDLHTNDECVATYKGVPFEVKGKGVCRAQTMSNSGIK
UniProt P27144: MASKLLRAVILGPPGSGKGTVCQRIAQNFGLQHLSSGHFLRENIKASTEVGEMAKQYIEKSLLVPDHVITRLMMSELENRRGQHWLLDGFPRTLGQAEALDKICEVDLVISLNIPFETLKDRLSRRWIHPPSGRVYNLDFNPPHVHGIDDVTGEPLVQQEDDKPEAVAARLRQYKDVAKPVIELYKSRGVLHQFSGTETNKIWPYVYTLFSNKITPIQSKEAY
UniProt Q96Q83: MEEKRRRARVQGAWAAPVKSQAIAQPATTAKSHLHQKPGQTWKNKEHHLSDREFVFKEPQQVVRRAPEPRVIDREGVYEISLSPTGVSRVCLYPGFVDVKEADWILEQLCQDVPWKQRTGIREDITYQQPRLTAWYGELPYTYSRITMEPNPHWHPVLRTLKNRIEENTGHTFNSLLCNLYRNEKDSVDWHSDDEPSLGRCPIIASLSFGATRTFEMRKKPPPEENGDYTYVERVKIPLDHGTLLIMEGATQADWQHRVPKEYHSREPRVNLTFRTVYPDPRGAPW
UniProt P00352: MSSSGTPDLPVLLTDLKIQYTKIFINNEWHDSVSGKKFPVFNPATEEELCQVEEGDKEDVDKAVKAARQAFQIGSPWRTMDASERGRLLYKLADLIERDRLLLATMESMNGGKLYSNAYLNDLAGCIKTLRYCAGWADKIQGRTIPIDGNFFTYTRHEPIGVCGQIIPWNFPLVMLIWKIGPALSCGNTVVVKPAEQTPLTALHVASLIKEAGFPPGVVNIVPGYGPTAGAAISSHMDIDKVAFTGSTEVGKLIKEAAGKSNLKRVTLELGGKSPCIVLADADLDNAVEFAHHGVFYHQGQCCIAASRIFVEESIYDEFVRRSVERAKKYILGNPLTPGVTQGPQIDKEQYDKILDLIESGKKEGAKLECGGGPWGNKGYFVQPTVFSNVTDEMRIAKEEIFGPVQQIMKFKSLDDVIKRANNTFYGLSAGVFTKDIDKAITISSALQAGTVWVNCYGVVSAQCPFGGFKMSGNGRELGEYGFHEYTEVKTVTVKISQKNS
UniProt P52895: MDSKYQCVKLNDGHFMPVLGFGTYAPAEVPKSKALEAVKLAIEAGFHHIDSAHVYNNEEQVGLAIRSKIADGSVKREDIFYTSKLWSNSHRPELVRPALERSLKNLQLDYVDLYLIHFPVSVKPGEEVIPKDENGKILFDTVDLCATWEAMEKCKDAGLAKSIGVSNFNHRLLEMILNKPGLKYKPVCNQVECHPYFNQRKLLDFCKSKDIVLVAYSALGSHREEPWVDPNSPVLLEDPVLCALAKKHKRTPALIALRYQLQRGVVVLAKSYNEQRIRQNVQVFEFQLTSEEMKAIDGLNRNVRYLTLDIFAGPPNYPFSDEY
UniProt O15120: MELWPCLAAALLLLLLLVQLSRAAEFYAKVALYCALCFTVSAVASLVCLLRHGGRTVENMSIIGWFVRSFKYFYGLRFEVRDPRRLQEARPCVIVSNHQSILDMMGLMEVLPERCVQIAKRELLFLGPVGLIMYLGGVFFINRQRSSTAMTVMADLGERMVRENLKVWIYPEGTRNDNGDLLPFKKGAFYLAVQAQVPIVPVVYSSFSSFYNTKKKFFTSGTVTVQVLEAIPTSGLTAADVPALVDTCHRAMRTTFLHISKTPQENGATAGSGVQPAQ
UniProt Q9ULX6: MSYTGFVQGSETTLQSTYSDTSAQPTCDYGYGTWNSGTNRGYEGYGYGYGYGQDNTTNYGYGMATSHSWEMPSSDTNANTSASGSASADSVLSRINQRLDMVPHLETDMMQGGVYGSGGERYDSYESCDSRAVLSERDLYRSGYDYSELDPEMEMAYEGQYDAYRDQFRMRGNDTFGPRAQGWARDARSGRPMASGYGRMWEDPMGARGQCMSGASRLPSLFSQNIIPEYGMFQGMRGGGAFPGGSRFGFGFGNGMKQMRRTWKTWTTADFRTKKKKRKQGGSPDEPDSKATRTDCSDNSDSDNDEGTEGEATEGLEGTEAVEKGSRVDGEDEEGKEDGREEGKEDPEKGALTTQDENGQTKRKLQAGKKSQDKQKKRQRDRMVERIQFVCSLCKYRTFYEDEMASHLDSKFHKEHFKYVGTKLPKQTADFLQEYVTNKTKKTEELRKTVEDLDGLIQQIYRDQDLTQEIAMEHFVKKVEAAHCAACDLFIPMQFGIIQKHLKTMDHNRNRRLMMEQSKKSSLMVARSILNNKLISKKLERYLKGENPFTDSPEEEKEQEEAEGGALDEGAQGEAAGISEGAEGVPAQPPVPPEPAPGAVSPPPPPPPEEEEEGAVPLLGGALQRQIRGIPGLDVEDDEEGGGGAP
UniProt Q53H12: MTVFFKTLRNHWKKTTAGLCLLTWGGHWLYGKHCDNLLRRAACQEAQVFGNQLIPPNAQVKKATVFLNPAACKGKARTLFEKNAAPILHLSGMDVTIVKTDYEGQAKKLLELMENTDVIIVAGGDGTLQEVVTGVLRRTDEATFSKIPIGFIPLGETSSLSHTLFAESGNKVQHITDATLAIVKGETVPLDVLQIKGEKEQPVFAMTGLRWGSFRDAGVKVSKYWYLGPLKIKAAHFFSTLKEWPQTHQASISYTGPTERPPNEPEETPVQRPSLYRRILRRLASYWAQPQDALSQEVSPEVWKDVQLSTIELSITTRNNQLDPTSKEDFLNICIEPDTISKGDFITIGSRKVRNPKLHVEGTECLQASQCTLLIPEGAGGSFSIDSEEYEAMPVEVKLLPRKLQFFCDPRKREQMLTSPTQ
UniProt Q9NX46: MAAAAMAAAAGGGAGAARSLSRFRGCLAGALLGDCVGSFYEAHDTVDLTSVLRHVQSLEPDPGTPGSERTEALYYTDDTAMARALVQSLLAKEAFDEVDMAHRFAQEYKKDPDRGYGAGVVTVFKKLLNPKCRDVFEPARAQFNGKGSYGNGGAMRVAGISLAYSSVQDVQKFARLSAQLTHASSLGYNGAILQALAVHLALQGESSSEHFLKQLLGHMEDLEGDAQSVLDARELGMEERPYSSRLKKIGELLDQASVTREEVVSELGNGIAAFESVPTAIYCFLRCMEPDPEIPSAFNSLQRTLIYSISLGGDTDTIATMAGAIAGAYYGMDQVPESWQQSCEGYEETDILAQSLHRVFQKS

Columns and labels:
Assay in all cases: log2 fold change, soluble protein after heating vs DMSO (PISA); higher = thermal stabilisation; K562 cells, 10 uM, 30 min; active = over 0.2 and 3.5 SD of the protein, either way, in both replicates (recomputed)
erlotinib = compound: C#Cc1cccc(Nc2ncnc3cc(OCCOC)c(OCCOC)cc23)c1 [erlotinib]
Procedure, shortened: (§1)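 Quantification of soluble protein used TMTpro 16plex LC-MS/MS, with channel sums equalised. Samples were the supernatant after 21,000xg for 90 min of pooled aliquots from K562 cells (2×10^6 cells/mL) treated with 10 μM compound for 30 min, heated for 3 min over 48°C-58°C, and extracted in PBS with 0.5% NP-40 at 4°C. Values, from duplicates, describe thermal stability against control samples on a log2 fold-change scale.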

[1] = compound: C/C(=N\NC(=O)C1=CC(=CC=C1)S(=O)(=O)N2CCOCC2)/C3=C(C=CC(=C3)Cl)O
Procedure, shortened: as §1

[2] = compound: C1=CC(=C(C=C1Cl)C2=NC3=NC=CN=C3C(=N2)NC4=CC=NC=C4)F
Procedure, shortened: as §1

[3] = compound: C1=CC(=CC=C1C2=NC3=C(N2)C=C(C=C3)C(=O)N)OC4=CC=C(C=C4)Cl
Procedure, shortened: as §1

[4] = compound: C1=CC2=C(C=CC(=C2)/C=C\3/C(=O)NC(=NCC4=CC=CS4)S3)N=C1
Procedure, shortened: as §1

[5] = compound: C1=CC2=NC=CN=C2C=C1/C=C/3\C(=O)NC(=O)S3
Procedure, shortened: as §1

[6] = compound: C1=CC=C(C=C1)C2=NC(=C(N2)C3=CC=NC=C3)C4=CC(=C(C=C4)Cl)O
Procedure, shortened: as §1

[7] = compound: C1=CC=C2C(=C1)C3=NNC4=CC=CC(=C43)C2=O
Procedure, shortened: as §1

[8] = compound: C1CCN(C1)C(=O)NC2=CC=CC(=C2)NC3=NC=C(C(=N3)NCCC4=CN=CN4)Br
Procedure, shortened: as §1

[9] = compound: C1CN(CCC1(CC2=CC=C(C=C2)Cl)N)C3=NC=NC4=C3C=CN4
Procedure, shortened: as §1

Row | Target | log2 fold change (erlotinib) | log2 fold change [1] | log2 fold change [2] | log2 fold change [3] | log2 fold change [4] | log2 fold change [5] | log2 fold change [6] | log2 fold change [7] | log2 fold change [8] | log2 fold change [9]
1 | ALDH2 (UniProt P05091) | inactive: -0.009 | inactive: 0.121 | inactive: 0.039 | inactive: 0.021 | inactive: 0.096 | inactive: 0.022 | inactive: -0.019 | inactive: 0.097 | inactive: -0.041 | inactive: 0.02
2 | AK1 (UniProt P00568) | inactive: -0.013 | inactive: 0.038 | inactive: 0.041 | inactive: 0.025 | inactive: 0.089 | inactive: 0.052 | inactive: -0.005 | inactive: 0.012 | inactive: 0.024 | inactive: -0.023
3 | ADSS1 (UniProt Q8N142) | inactive: 0.037 | inactive: 0.061 | inactive: 0.03 | inactive: 0.068 | inactive: 0.01 | inactive: -0.007 | inactive: -0.023 | inactive: 0.002 | inactive: -0.033 | inactive: -0.029
4 | AFG1L (UniProt Q8WV93) | inactive: 0.053 | inactive: 0 | inactive: 0.076 | inactive: -0.083 | inactive: 0.065 | inactive: 0.041 | inactive: -0.204 | inactive: -0.042 | inactive: 0.058 | inactive: -0.004
5 | ALYREF (UniProt Q86V81) | inactive: -0.144 | inactive: -0.169 | inactive: -0.344 | inactive: -0.02 | inactive: -0.111 | inactive: 0.005 | inactive: -0.079 | inactive: -0.024 | inactive: 0.078 | inactive: -0.162
6 | AMD1 (UniProt P17707) | inactive: 0.078 | inactive: -0.004 | inactive: 0.039 | inactive: 0.094 | inactive: 0.091 | inactive: -0.002 | inactive: 0.127 | inactive: 0.035 | inactive: -0.224 | inactive: 0.025
7 | ADD1 isoform 3 (UniProt P35611) | inactive: 0.041 | inactive: 0.018 | inactive: -0.013 | inactive: -0.022 | inactive: 0.071 | inactive: 0.004 | inactive: -0.08 | inactive: -0.018 | inactive: -0.018 | inactive: 0.023
8 | ADD3 (UniProt Q9UEY8) | inactive: 0.018 | inactive: 0 | inactive: -0.008 | inactive: 0.025 | inactive: 0.02 | inactive: 0.013 | inactive: -0.025 | inactive: -0.024 | inactive: -0.015 | inactive: 0.031
9 | ALKBH4 (UniProt Q9NXW9) | inactive: 0.067 | inactive: 0.084 | inactive: 0.018 | inactive: 0.078 | inactive: 0.106 | inactive: -0.129 | inactive: 0.032 | inactive: -0.006 | inactive: -0.074 | inactive: 0.091
10 | ALG9 isoform 3 (UniProt Q9H6U8) | inactive: 0.022 | inactive: 0.006 | inactive: -0.004 | inactive: 0.014 | inactive: 0.041 | inactive: 0.003 | inactive: 0.026 | inactive: -0.046 | inactive: -0.004 | inactive: 0.002
11 | ALKBH5 (UniProt Q6P6C2) | inactive: 0.176 | active: -0.637 | inactive: -0.126 | inactive: 0.139 | inactive: 0.056 | inactive: -0.067 | inactive: 0.015 | inactive: -0.032 | inactive: -0.087 | inactive: 0.113
12 | AFDN isoform 5 (UniProt P55196) | inactive: -0.005 | inactive: 0.101 | inactive: 0.021 | inactive: 0.01 | inactive: -0.02 | inactive: 0 | inactive: 0.012 | inactive: -0.005 | inactive: -0.049 | inactive: 0.038
13 | ALG5 (UniProt Q9Y673) | inactive: -0.008 | inactive: 0.014 | inactive: 0.071 | inactive: 0.008 | inactive: 0.023 | inactive: 0.003 | inactive: 0.009 | inactive: 0.048 | inactive: -0.026 | inactive: -0.007
14 | ALDH1B1 (UniProt P30837) | inactive: 0 | inactive: 0.073 | inactive: 0.066 | inactive: 0.081 | inactive: 0.062 | inactive: -0.009 | inactive: 0.044 | inactive: 0.065 | inactive: -0.028 | inactive: 0.043
15 | AKR7A2 (UniProt O43488) | inactive: -0.032 | inactive: 0.101 | inactive: 0.108 | inactive: -0.026 | inactive: -0.059 | inactive: 0 | inactive: -0.006 | inactive: 0.067 | inactive: -0.044 | inactive: 0.056
16 | AIMP1 isoform 2 (UniProt Q12904) | inactive: 0.036 | inactive: -0.03 | inactive: -0.072 | inactive: -0.002 | inactive: -0.013 | inactive: 0.013 | inactive: -0.017 | inactive: -0.027 | inactive: 0.066 | inactive: -0.127
17 | AK4 (UniProt P27144) | inactive: 0.027 | inactive: 0.014 | inactive: 0.108 | inactive: -0.005 | inactive: 0.105 | inactive: 0.02 | inactive: 0.023 | inactive: 0.006 | inactive: -0.005 | inactive: 0.029
18 | AFTPH isoform 9 (UniProt Q6ULP2) | inactive: -0.022 | inactive: 0.021 | inactive: -0.062 | inactive: 0.03 | inactive: 0.02 | inactive: 0.065 | inactive: -0.029 | inactive: 0.034 | inactive: -0.016 | inactive: 0.002
19 | ALKBH3 (UniProt Q96Q83) | inactive: 0.011 | inactive: -0.086 | inactive: 0.016 | inactive: 0.082 | inactive: 0.007 | inactive: -0.057 | inactive: -0.056 | inactive: 0.052 | inactive: -0.04 | inactive: 0.01
20 | ALDH1A1 (UniProt P00352) | inactive: 0.006 | inactive: 0.049 | inactive: 0.098 | inactive: 0.025 | inactive: -0.025 | inactive: -0.026 | inactive: 0.048 | inactive: 0.088 | inactive: -0.047 | inactive: 0.036
21 | AKR1C2 (UniProt P52895) | inactive: 0.07 | inactive: 0.014 | inactive: -0.101 | inactive: -0.092 | inactive: 0.001 | inactive: 0.085 | inactive: 0.292 | inactive: -0.038 | inactive: 0.044 | inactive: -0.028
22 | AGPAT2 (UniProt O15120) | inactive: 0.056 | inactive: -0.086 | inactive: 0.032 | inactive: 0.038 | inactive: 0.258 | inactive: 0.078 | inactive: 0.011 | inactive: -0.002 | inactive: -0.243 | inactive: 0.015
23 | AKAP8L (UniProt Q9ULX6) | inactive: 0.001 | inactive: 0.085 | inactive: 0.074 | inactive: 0.026 | inactive: -0.006 | inactive: -0.058 | inactive: -0.054 | inactive: -0.027 | inactive: -0.053 | inactive: 0.031
24 | AMFR (UniProt Q9UKV5) | inactive: 0.116 | inactive: 0 | inactive: -0.022 | inactive: -0.062 | inactive: -0.046 | inactive: 0.058 | inactive: 0.026 | inactive: -0.062 | inactive: 0.002 | inactive: -0.009
25 | AGK (UniProt Q53H12) | inactive: 0.029 | inactive: 0.007 | inactive: 0.078 | inactive: 0.006 | inactive: 0.009 | inactive: -0.025 | inactive: -0.003 | inactive: -0.009 | inactive: -0.014 | inactive: 0.049
26 | ADPRHL2 (UniProt Q9NX46) | inactive: 0.03 | inactive: 0.024 | inactive: 0.122 | inactive: 0.048 | inactive: 0.043 | inactive: 0.006 | inactive: 0.019 | inactive: 0.049 | inactive: 0.003 | inactive: -0.165

Two records picked at random from those above:
Row | Target | log2 fold change (erlotinib) | log2 fold change [1] | log2 fold change [2] | log2 fold change [3] | log2 fold change [4] | log2 fold change [5] | log2 fold change [6] | log2 fold change [7] | log2 fold change [8] | log2 fold change [9]
26 | ADPRHL2 (UniProt Q9NX46) | inactive: 0.03 | inactive: 0.024 | inactive: 0.122 | inactive: 0.048 | inactive: 0.043 | inactive: 0.006 | inactive: 0.019 | inactive: 0.049 | inactive: 0.003 | inactive: -0.165
14 | ALDH1B1 (UniProt P30837) | inactive: 0 | inactive: 0.073 | inactive: 0.066 | inactive: 0.081 | inactive: 0.062 | inactive: -0.009 | inactive: 0.044 | inactive: 0.065 | inactive: -0.028 | inactive: 0.043
